These are yes or no findings as the source states them, for the method shown. Some entries that bind do so weakly or less than the wild type.

Sequences of proteins named here, by UniProt entry; tags and fusion partners are left off.
UniProt P13569: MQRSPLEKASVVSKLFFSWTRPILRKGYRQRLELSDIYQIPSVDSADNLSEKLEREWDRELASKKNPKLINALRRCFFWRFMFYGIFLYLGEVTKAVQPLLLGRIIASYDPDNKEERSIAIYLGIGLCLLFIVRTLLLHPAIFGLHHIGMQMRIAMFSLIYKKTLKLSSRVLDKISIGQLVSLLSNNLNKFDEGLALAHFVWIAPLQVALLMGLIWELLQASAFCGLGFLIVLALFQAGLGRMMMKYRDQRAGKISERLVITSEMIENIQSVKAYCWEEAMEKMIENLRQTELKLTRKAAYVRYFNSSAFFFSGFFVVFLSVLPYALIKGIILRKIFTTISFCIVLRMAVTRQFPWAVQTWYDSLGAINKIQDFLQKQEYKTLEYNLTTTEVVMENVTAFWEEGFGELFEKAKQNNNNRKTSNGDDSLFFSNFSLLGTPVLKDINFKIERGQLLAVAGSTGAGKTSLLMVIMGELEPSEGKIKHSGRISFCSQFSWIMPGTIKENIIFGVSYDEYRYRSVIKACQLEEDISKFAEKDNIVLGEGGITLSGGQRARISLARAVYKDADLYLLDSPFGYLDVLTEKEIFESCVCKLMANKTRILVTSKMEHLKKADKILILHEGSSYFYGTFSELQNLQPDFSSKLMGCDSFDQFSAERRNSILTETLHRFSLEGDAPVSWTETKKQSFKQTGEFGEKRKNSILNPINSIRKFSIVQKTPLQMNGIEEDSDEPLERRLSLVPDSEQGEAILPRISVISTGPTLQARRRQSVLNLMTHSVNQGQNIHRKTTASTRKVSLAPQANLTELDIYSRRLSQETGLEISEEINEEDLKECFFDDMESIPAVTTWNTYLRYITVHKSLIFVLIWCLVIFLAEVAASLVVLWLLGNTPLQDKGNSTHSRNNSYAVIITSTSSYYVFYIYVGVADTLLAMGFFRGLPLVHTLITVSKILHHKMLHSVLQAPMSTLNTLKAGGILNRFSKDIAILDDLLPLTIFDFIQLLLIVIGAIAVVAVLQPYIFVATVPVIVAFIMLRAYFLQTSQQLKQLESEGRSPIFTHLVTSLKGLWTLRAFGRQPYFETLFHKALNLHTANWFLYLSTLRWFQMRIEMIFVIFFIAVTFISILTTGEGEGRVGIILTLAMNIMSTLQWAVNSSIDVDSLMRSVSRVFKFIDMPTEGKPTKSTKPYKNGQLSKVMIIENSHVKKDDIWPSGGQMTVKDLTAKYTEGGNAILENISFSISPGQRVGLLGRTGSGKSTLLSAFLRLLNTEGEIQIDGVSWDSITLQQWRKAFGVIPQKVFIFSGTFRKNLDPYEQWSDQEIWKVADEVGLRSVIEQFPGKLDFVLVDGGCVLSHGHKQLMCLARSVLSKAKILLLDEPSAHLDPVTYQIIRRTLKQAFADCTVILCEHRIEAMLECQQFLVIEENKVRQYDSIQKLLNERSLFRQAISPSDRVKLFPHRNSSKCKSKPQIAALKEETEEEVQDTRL

The target of the assay is Venus-CFTR (full-length CFTR) (UniProt P13569). In words: flow cytometric FRET in HEK293 cells, Cerulean-nb.E3h donor and Venus-CFTR acceptor. (A flow cytometer gives signals particle by particle.)

B1: Cerulean-nb.E3h (VHH, not shown: large carriers)
VHH: QVQLQESGGGLVQAGGSLRLSCAASGTISGSGSMGWYRQAPGKEREFVAAINVGSNTYYADSVKGRFTISRDNAKNTVYLQMNSLKPEDTAVYYCAVRFGYYYRHTYWGQGTQVTVSS
As to B1, the binding result is on record as “binds”.

For the origin of these results see patent publication US20230235084A1, “COMPOSITIONS AND METHODS FOR TARGETED PROTEIN STABILIZATION BY REDIRECTING ENDOGENOUS DEUBIQUITINASES” (THE TRUSTEES OF COLUMBIA UNIVERSITY IN THE CITY OF NEW YORK, priority 2020, published 2023).
